PMC2860244
These are yes or no findings as the source states them, for the method shown. Binding seen in cells or lysates may run through a third protein. These calls come from enrichment with a bait or labelling near it, and not all partners need be listed. A no says only that the protein was not detected with the bait.

Target: Oct4-FTAP fusion protein (mouse), P20263
Experiment: affinity purification with mass spectrometry; one-step purification on anti-FLAG M2 Dynal beads from whole-cell extracts of Oct4-FTAP ESCs against unmodified control cells (AB2.2); 150 mM NaCl, 0.1% NP-40, 90 min, 4°C; elution with AcTEV protease; three independent purifications; LC-MS/MS
Conditions: remark: other sources report otherwise

binding: no binding
B1: beta-catenin, Q02248 1-781 (protein)
chain: MATQADLMELDMAMEPDRKAAVSHWQQQSYLDSGIHSGATTTAPSLSGKGNPEEEDVDTSQVLYEWEQGFSQSFTQEQVADIDGQYAMTRAQRVRAAMFPETLDEGMQIPSTQFDAAHPTNVQRLAEPSQMLKHAVVNLINYQDDAELATRAIPELTKLLNDEDQVVVNKAAVMVHQLSKKEASRHAIMRSPQMVSAIVRTMQNTNDVETARCTAGTLHNLSHHREGLLAIFKSGGIPALVKMLGSPVDSVLFYAITTLHNLLLHQEGAKMAVRLAGGLQKMVALLNKTNVKFLAITTDCLQILAYGNQESKLIILASGGPQALVNIMRTYTYEKLLWTTSRVLKVLSVCSSNKPAIVEAGGMQALGLHLTDPSQRLVQNCLWTLRNLSDAATKQEGMEGLLGTLVQLLGSDDINVVTCAAGILSNLTCNNYKNKMMVCQVGGIEALVRTVLRAGDREDITEPAICALRHLTSRHQEAEMAQNAVRLHYGLPVVVKLLHPPSHWPLIKATVGLIRNLALCPANHAPLREQGAIPRLVQLLVRAHQDTQRRTSMGGTQQQFVEGVRMEEIVEGCTGALHILARDVHNRIVIRGLNTIPLFVQLLYSPIENIQRVAAGVLCELAQDKEAAEAIEAEGATAPLTELLHSRNEGVATYAAAVLFRMSEDKPQDYKKRLSVELTSSLFRTEPMAWNETADLGLDIGAQGEALGYRQDDPSYRSFHSGGYGQDALGMDPMMEHEMGGHHPGADYPVDGLPDLGHAQDLMDGLPPGDSNQLAWFDTDL
